Reference: publication doi:10.1101/644955
These are yes or no findings as the source states them, for the method shown. Some entries that bind do so weakly or less than the wild type. Where a sequence is shown, tags or fusion partners need not be part of it.

Molecular target: T1, bovine IL-2Rα (bovine) (UniProt P12342)
T1 sequence: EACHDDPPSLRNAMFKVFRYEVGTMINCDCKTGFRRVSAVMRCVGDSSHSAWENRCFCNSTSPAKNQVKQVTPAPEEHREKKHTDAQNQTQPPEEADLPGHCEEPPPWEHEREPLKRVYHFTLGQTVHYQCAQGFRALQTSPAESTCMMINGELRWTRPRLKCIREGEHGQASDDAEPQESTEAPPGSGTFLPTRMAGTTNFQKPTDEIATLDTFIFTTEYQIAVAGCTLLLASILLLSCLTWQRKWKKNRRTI
Test: flow cytometry on cells

binding: binds
B1: FLAG-tagged bovine IL-2 (ligand, UniProt P05016 21-155)
chain: APTSSSTGNTMKEVKSLLLDLQLLLEKVKNPENLKLSRMHTFDFYVPKVNATELKHLKCLLEELKLLEEVLNLAPSKNLNPREIKDSMDNIKRIVLELQGSETRFTCEYDDATVNAVEFLNKWITFCQSIYSTMT
